# Data taken from the supplement of paper PMC9135407.
# “And” between values parts separate entries of the source, which are not always exact repeats. Identical values can stand only once. Counter-ions that a name gives are not always drawn. ± gives the standard deviation of the averaged measurements. The list shows a part of the results. Part of the spread comes from offsets between plates or batches.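 Primary human stellate myofibroblasts activated in culture; inactivation shown by regained lipid droplets. Readout: fraction of Hoechst-counted cells exceeding a per-plate Bodipy threshold, duplicate wells, each plate with DMSO negative and nortriptyline positive controls. Hits: control-normalized score beyond the plate's top-tenth-percentile nortriptyline wells, or among its three best wells. Final well concentrations unstated.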
# Tested on: primary human hepatic stellate cells (donor 1)
# Assay: percent Bodipy-positive cells; higher = more lipid droplet accumulation
# Details: 48 h
# [1] = library stock concentration: 10 mM
# [2] = library stock concentration: 1 mM
# [3] = library stock concentration: 3.33 mM
# [4] = library stock concentration: 6 mM
compound,measurement,setting,value
CCOC(=O)c1c(C)[nH]c2ccc3c(c12)CN1CCc2cc(OC)ccc2C1O3 (stereo not drawn),percent Bodipy-positive cells,[1],42.5 ± 5.7%
CCCCCCCC(=O)CC[C@@H]1[C@@H](C/C=C\CCCC(=O)OC(C)C)[C@@H](O)C[C@H]1O [Unoprostone isopropyl ester],percent Bodipy-positive cells,[2],16.6 ± 3.9%
CCCCCCCCCCCCCCCCCCCCCC(=O)NCCS(=O)(=O)O [N-Docosanoyl Taurine],percent Bodipy-positive cells,[2],9.24 ± 4.4%
CCn1cc(C(=O)O)c(=O)c2cc(F)c(N3CCN(C)CC3)cc21 [Pefloxacin Mesylate Dihydrate],percent Bodipy-positive cells,[3],9.35 ± 3.4%
same,percent Bodipy-positive cells,[1],16.6 ± 0.97%
CCn1cc(C(=O)O)c(=O)c2cc(F)c(N3CCN(C)CC3)cc21,percent Bodipy-positive cells,[1],11.3 ± 6%
CCn1cc(C(=O)O)c(=O)c2cc(F)c(N3CCN(C)CC3)cc21 [Pefloxacin Mesylate],percent Bodipy-positive cells,[3],6.57 ± 1.9%
same,percent Bodipy-positive cells,[1],7.47 ± 1.3%
CCn1cc(C(=O)O)c(=O)c2cc(F)c(N3CCN(C)CC3)cc21 [Pefloxacine mesylate],percent Bodipy-positive cells,library stock concentration: 4.7 mM,11.4 ± 5.2%
same,percent Bodipy-positive cells,[4],6.1 ± 0.57%
same,percent Bodipy-positive cells,[1],47.4 ± 13%
CCCCC(=O)Oc1ccccc1C(=O)O [Valeroyl Salicylate],percent Bodipy-positive cells,[2],9.25 ± 3.5%
CC[C@]12CCCN3CCc4c(n(c5ccccc45)C(=O)C1)[C@@H]32 [Eburnamonine (-)],percent Bodipy-positive cells,,27.4 ± 6.4%
CCOC(=O)c1ccc(N2NC(=O)C(=Cc3ccc([N+](=O)[O-])o3)C2=O)cc1,percent Bodipy-positive cells,library stock concentration: 80 uM,10.1 ± 1.5%
same,percent Bodipy-positive cells,library stock concentration: 400 uM,11.2 ± 4%
same,percent Bodipy-positive cells,library stock concentration: 2 mM,8.65 ± 7.4%
same,percent Bodipy-positive cells,[3],27.7 ± 6.8%
same,percent Bodipy-positive cells,[1],25.3% and 8.53%
C[C@@H](Oc1cc(-c2cnn(C3CCNCC3)c2)cnc1N)c1c(Cl)ccc(F)c1Cl,percent Bodipy-positive cells,[3],76.7 ± 18%
same,percent Bodipy-positive cells,[1],97.2 ± 1.4%
CC(N)(C(=O)O)c1ccc(C(=O)O)cc1 (stereo not drawn),percent Bodipy-positive cells,[1],23.4 ± 2%
CC(=O)OCOC(c1ccc2ccccc2c1)P(=O)(OCOC(C)=O)OCOC(C)=O (stereo not drawn),percent Bodipy-positive cells,library stock concentration: 11 mM,23.2 ± 5.4%
CCNC(=O)c1noc(-c2cc(Cl)c(O)cc2O)c1-c1ccc(OC)cc1,percent Bodipy-positive cells,[3],85.04 ± 0.56%
same,percent Bodipy-positive cells,[1],87.5 ± 1.2%
CCN(CC)CCCCNc1ncc2cc(-c3c(Cl)cccc3Cl)c(NC(=O)NC(C)(C)C)nc2n1,percent Bodipy-positive cells,[1],90.8 ± 2.4%
"CN=C(N)NCCC[C@H](N)C(=O)O [L-Ornithine, N5-[imino(methylamino)methyl]-[CAS]]",percent Bodipy-positive cells,[1],12.8 ± 3.1%
OCc1ccccc1,percent Bodipy-positive cells,[1],34.7 ± 8.9%
CNC(=C[N+](=O)[O-])NCCSCc1csc(CN(C)C)n1,percent Bodipy-positive cells,[1],20 ± 4%
CNC(=C[N+](=O)[O-])NCCSCc1csc(CN(C)C)n1 [Nizatidine],percent Bodipy-positive cells,,9.4 ± 0.8%
same,percent Bodipy-positive cells,[3],12 ± 5.6%
same,percent Bodipy-positive cells,[4],3.19 ± 0.93%
same,percent Bodipy-positive cells,[1],20.1 ± 4%
Cc1nc(Nc2n[nH]c3c2CN(C(=O)N[C@H](CN(C)C)c2ccccc2)C3(C)C)c2sccc2n1,percent Bodipy-positive cells,[1],79.5 ± 9.7%
CC(C)CN(C[C@@H](O)[C@H](Cc1ccccc1)NC(=O)O[C@H]1CCOC1)S(=O)(=O)c1ccc(N)cc1 [Amprenavir],percent Bodipy-positive cells,[3],6.91 ± 4.9%
same,percent Bodipy-positive cells,library stock concentration: 4 mM,9.92 ± 3.6%
same,percent Bodipy-positive cells,[1],15.8 ± 3.2%
CCn1c(=O)[nH]c2ccccc21,percent Bodipy-positive cells,[1],8.55 ± 2.5%
CN(C)S(=O)(=O)c1ccc2c(c1)/C(=C/c1cc3c([nH]1)CCCC3)C(=O)N2,percent Bodipy-positive cells,[2],55.6 ± 3.5%
CCC1=C[C@@H]2CN(C1)Cc1c([nH]c3ccccc13)[C@@](C(=O)OC)(c1cc3c(cc1OC)N(C)[C@H]1[C@@](O)(C(=O)OC)[C@H](OC(C)=O)[C@]4(CC)C=CCN5CC[C@]31[C@@H]54)C2 [Vinorelbine],percent Bodipy-positive cells,library stock concentration: 2.6 mM,61.6 ± 5%
O=C(O)CCCCCC[C@H]1C(=O)C[C@@H](O)[C@@H]1/C=C/[C@@H](O)Cc1ccccc1 [16-phenyl tetranor Prostaglandin E1],percent Bodipy-positive cells,[2],28.5 ± 9.4%
NCC(O)c1ccc(O)c(O)c1 (stereo not drawn),percent Bodipy-positive cells,[1],46.2 ± 14%
O=c1ccc2c(OCCCCc3ccccc3)c3ccoc3cc2o1 [Psora-4],percent Bodipy-positive cells,[1],47.6 ± 15%
C=CC(=O)Nc1cccc(Nc2nc(Nc3ccc(NC4CN(CCF)C4)cc3OC)ncc2C(F)(F)F)c1,percent Bodipy-positive cells,[3],48.8 ± 7.1%
same,percent Bodipy-positive cells,[1],92.9 ± 3.7%
COCC(=O)NC/C=C/c1ccc2ncnc(Nc3ccc(Oc4ccc(C)nc4)c(C)c3)c2c1,percent Bodipy-positive cells,[1],98.87 ± 0.33%
CCn1cc(C(=O)O)c(=O)c2cc(F)c(N3CCNC(C)C3)c(F)c21 (stereo not drawn) [Lomefloxacin HCl],percent Bodipy-positive cells,library stock concentration: 5.7 mM,7.25 ± 1.9%
CCn1cc(C(=O)O)c(=O)c2cc(F)c(N3CCNC(C)C3)c(F)c21 (stereo not drawn) [Lomefloxacin hydrochloride],percent Bodipy-positive cells,,20.1 ± 0.68%
same,percent Bodipy-positive cells,library stock concentration: 5.2 mM,11.9 ± 1.3%
same,percent Bodipy-positive cells,[1],23.8% and 19.5%
NC(=O)c1cc[n+](CC2=C(C(=O)O)N3C(=O)[C@@H](NC(=O)C(c4ccccc4)S(=O)(=O)[O-])[C@H]3SC2)cc1 (stereo partly drawn) [Cefsulodin sodium salt hydrate],percent Bodipy-positive cells,[1],31.8 ± 5.3%
CS(=O)(=O)Nc1ccc([N+](=O)[O-])cc1Oc1ccccc1 [Nimesulide],percent Bodipy-positive cells,,22.7 ± 1%
same,percent Bodipy-positive cells,[2],8.36 ± 1.9%
same,percent Bodipy-positive cells,[3],8.07 ± 0.69%
same,percent Bodipy-positive cells,library stock concentration: 16.2 mM,17.9 ± 1.8%
COc1cc(C)nc(-n2nc(C)cc2OC)n1,percent Bodipy-positive cells,[1],6.34 ± 0.65%
COc1cc(C)nc(-n2nc(C)cc2OC)n1 [Epirizole],percent Bodipy-positive cells,,26.4 ± 13%
CCOC(=O)CCC(=O)O[C@H]1[C@H](O[C@@H]2[C@@H](C)[C@H](O[C@H]3C[C@@](C)(OC)[C@@H](O)[C@H](C)O3)[C@@H](C)C(=O)O[C@H](CC)[C@@](C)(O)[C@H](O)[C@@H](C)C(=O)[C@H](C)C[C@@]2(C)O)O[C@H](C)C[C@@H]1N(C)C [Erythromycin ethylsuccinate],percent Bodipy-positive cells,library stock concentration: 2.3 mM,3.93 ± 0.99%
same,percent Bodipy-positive cells,[1],34.1 ± 0.71%
